Earlier results, collected in patent US12582717B2, “Protein based excipient for active pharmaceutical ingredients” (ROUSSELOT B.V., priority 2016, dated 2026).
Like-named read-outs stand apart in the source and are kept apart here.

Conditions: cited from earlier work

CC(C)Cc1ccc(C(C)C(=O)O)cc1 (centres unmarked) [Ibuprofen]
solubility (pH 4.5): low solubility
solubility (pH 6.8): high solubility
